Results deposited as PubChem BioAssay AID1259405 (NCATS, 2018)

- Screen: 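Silenced genes that increase secreted GFP made by CHO cells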 (primary screen)
- Cells: Chinese hamster CHO-K1 ovary cells with stable secreted eGFP expression
- Reagents: single siRNA against mouse genes, 0.8 pmol siRNA per well (2 µl of 400 nM stock)
- Duration: 3 days
- Measured: 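Percent of the per-plate non-targeting control median for intracellular GFP per well by laser scanning cytometry and for cell viability by ATP luminescence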
- Direction: GFP, % of control: higher = more GFP per well, higher productivity; viability (ATP), % of control: higher = more viable cells (more ATP)
- Active means: 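Called active when intracellular GFP, relative to negative control, is at or above 120%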
This is a random part of about 50,000 deposited reagents. Of all reagents, about 4,000 (8%) got an active call. 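Mouse siRNA library applied to hamster cells; one well for each siRNA.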 Unmarked entries are inactive. The numbers tell different reagents against one gene apart.

GFP, % of control	viability (ATP), % of control	Gene	reagent
105	66.9	Tra2a (transformer 2 alpha)	1
107	104	Tra2a (transformer 2 alpha)	2
165 (active)	119	Tra2a (transformer 2 alpha)	3
75.4	93.9	Tra2a (transformer 2 alpha)	4
79.2	58.1	Tra2a (transformer 2 alpha)	5
82.3	82.9	Tra2a (transformer 2 alpha)	6
64.3	72.7	Hunk (hormonally upregulated Neu-associated kinase)	1
128 (active)	96.5	Mdc1 (mediator of DNA damage checkpoint 1)	1
67.8	76.7	Mdc1 (mediator of DNA damage checkpoint 1)	2
73.3	68.2	Mdc1 (mediator of DNA damage checkpoint 1)	3
59.4	59.7	Wdr5 (WD repeat domain 5)	1
128 (active)	91.3	Wdr5 (WD repeat domain 5)	2
56.3	88.2	Wdr5 (WD repeat domain 5)	3
113	106	Cxcr1 (C-X-C motif chemokine receptor 1)	1
85.7	74.2	Cxcr1 (C-X-C motif chemokine receptor 1)	2
70.6	77.2	Cxcr1 (C-X-C motif chemokine receptor 1)	3
67.6	67.9	Itpripl2	1
98.8	78.7	Itpripl2	2
47.6	60.7	Itpripl2	3
80.9	78.3	Actbl2 (actin, beta-like 2)	1
67.4	80.5	Actbl2 (actin, beta-like 2)	2
81.4	73.4	Actbl2 (actin, beta-like 2)	3
27.5	22.7	Rps24 (ribosomal protein S24)	1
47.8	28.7	Rps24 (ribosomal protein S24)	2
37.2	22.2	Rps24 (ribosomal protein S24)	3
46.7	39	Or5an10 (olfactory receptor family 5 subfamily AN member 10)	1
62.1	62.2	Or5an10 (olfactory receptor family 5 subfamily AN member 10)	2
107	67.3	Or5an10 (olfactory receptor family 5 subfamily AN member 10)	3
127 (active)	98.8	Kash5 (KASH domain containing 5)	1
54.6	88.9	Kash5 (KASH domain containing 5)	2
95.2	89.4	Kash5 (KASH domain containing 5)	3
39.9	48.5	Zfp13 (zinc finger protein 13)	1
76.4	85	Zfp13 (zinc finger protein 13)	2
37.1	65.1	Zfp13 (zinc finger protein 13)	3
48.1	58.7	Idh3a (isocitrate dehydrogenase 3 (NAD+) alpha)	1
77.6	57.9	Idh3a (isocitrate dehydrogenase 3 (NAD+) alpha)	2
87.3	105	Idh3a (isocitrate dehydrogenase 3 (NAD+) alpha)	3
86.8	111	Zp3 (zona pellucida glycoprotein 3)	1
90.3	65.7	Zp3 (zona pellucida glycoprotein 3)	2
130 (active)	99.4	Zp3 (zona pellucida glycoprotein 3)	3
88.8	70.1	Ift56 (intraflagellar transport 56)	1
73.2	74.3	Ift56 (intraflagellar transport 56)	2
59	74.9	Ift56 (intraflagellar transport 56)	3
130 (active)	77.6	Or52r1 (olfactory receptor family 52 subfamily R member 1)	1
76.7	77.1	Or52r1 (olfactory receptor family 52 subfamily R member 1)	2
78.6	125	Or52r1 (olfactory receptor family 52 subfamily R member 1)	3
114	102	Ywhag	1
58.6	71.8	Ywhag	2
55.4	54.8	Ywhag	3
105	71.4	Fpr3 (formyl peptide receptor 3)	1
75.9	63.4	Fpr3 (formyl peptide receptor 3)	2
74	66.7	Fpr3 (formyl peptide receptor 3)	3
61.6	84.3	Avpr2 (arginine vasopressin receptor 2)	1
42.8	54.3	Avpr2 (arginine vasopressin receptor 2)	2
71.8	51.8	Avpr2 (arginine vasopressin receptor 2)	3
111	102	Bacc1 (BPTF associated chromatin complex component 1)	1
107	78.6	Bacc1 (BPTF associated chromatin complex component 1)	2
50.9	42.5	Bacc1 (BPTF associated chromatin complex component 1)	3
86.2	66.5	Arhgap31 (Rho GTPase activating protein 31)	1
67.6	75.1	Arhgap31 (Rho GTPase activating protein 31)	2
85.9	70.1	Arhgap31 (Rho GTPase activating protein 31)	3
81.1	62.2	Lum (lumican)	1
64.2	57.1	Lum (lumican)	2
62.3	64.3	Lum (lumican)	3
66.1	73.5	Ascl2 (achaete-scute family bHLH transcription factor 2)	1
73.2	71.9	Ascl2 (achaete-scute family bHLH transcription factor 2)	2
102	96.5	Lnpep (leucyl/cystinyl aminopeptidase)	1
59.4	64.8	Lnpep (leucyl/cystinyl aminopeptidase)	2
80.4	97.8	Lnpep (leucyl/cystinyl aminopeptidase)	3
86.2	89.8	Nfxl1 (nuclear transcription factor, X-box binding-like 1)	1
105	95.9	Nfxl1 (nuclear transcription factor, X-box binding-like 1)	2
106	89.8	Nfxl1 (nuclear transcription factor, X-box binding-like 1)	3
55.3	65.9	Adora3 (adenosine A3 receptor)	1
74.4	108	Adora3 (adenosine A3 receptor)	2
41.7	56.1	Tfpt (TCF3 (E2A) fusion partner)	1
124 (active)	135	Tfpt (TCF3 (E2A) fusion partner)	2
138 (active)	111	Tfpt (TCF3 (E2A) fusion partner)	3
100	93	Lrtm1 (leucine-rich repeats and transmembrane domains 1)	1
75.5	80.2	Lrtm1 (leucine-rich repeats and transmembrane domains 1)	2
101	94.2	Lrtm1 (leucine-rich repeats and transmembrane domains 1)	3
85.7	47.7	Or2a20 (olfactory receptor family 2 subfamily A member 2)	1
58.2	70.8	Or2a20 (olfactory receptor family 2 subfamily A member 2)	2
68.2	63.7	Or2a20 (olfactory receptor family 2 subfamily A member 2)	3
95.6	93.8	Mad2l1 (MAD2 mitotic arrest deficient-like 1)	1
58.7	92.7	Mad2l1 (MAD2 mitotic arrest deficient-like 1)	2
61.9	77.3	Mad2l1 (MAD2 mitotic arrest deficient-like 1)	3

A portion from the list above, as a working copy:
GFP, % of control	viability (ATP), % of control	Gene	reagent
48.1	58.7	Idh3a (isocitrate dehydrogenase 3 (NAD+) alpha)	1
77.6	57.9	Idh3a (isocitrate dehydrogenase 3 (NAD+) alpha)	2
87.3	105	Idh3a (isocitrate dehydrogenase 3 (NAD+) alpha)	3
86.8	111	Zp3 (zona pellucida glycoprotein 3)	1
90.3	65.7	Zp3 (zona pellucida glycoprotein 3)	2
130 (active)	99.4	Zp3 (zona pellucida glycoprotein 3)	3
88.8	70.1	Ift56 (intraflagellar transport 56)	1
73.2	74.3	Ift56 (intraflagellar transport 56)	2
